Reference: patent publication US20100291108A1
No constants are given. Whether binding was seen depends on the method and setting. Some results given as binding are weak or reduced against the parent protein; the word gives no strength.

The chains behind the UniProt entries cited, without tags or fusion partners. Where a name states a change or a piece, a line headed by the entry shows the natural chain unless it says otherwise.
UniProt Q8TDQ1: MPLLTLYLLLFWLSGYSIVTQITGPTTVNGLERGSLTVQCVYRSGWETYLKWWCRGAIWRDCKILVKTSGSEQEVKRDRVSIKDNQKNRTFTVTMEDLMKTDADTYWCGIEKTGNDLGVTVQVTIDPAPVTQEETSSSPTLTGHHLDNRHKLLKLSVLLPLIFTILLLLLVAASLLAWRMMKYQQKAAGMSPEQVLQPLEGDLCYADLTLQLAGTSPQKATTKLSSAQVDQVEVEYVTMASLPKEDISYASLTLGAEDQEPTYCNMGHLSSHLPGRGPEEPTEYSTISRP

Key:
[1] = biological target: human IREM-1 (full-length, on cells) (human) (UniProt Q8TDQ1); test: flow cytometry of normal human peripheral blood cell populations; FITC-labelled mAb 871.1 according to paragraph 400
[2] = biological target: human IREM-1 (full-length, on cells) (human) (UniProt Q8TDQ1); test: flow cytometry of leukemia cell lines (FAB stages M0 to M7, CML), given as receptor number per cell; FITC-labelled mAb 871.1 according to paragraph 400
[3] = biological target: human IREM-1 (full-length, on cells) (human) (UniProt Q8TDQ1); test: flow cytometry of AML patient blasts and CD34+/CD38- AML stem cells with an anti-IREM-1 antibody; FITC-labelled mAb 871.1 according to paragraph 400
[4] = biological target: human IREM-1 (full-length, on cells) (human) (UniProt Q8TDQ1); test: fluorescence microscopy of HEK293 cells stably expressing IREM-1, Alexa488-conjugated antibody bound on ice, then 37 C for 0, 30, 120 min (internalization)

Measured: binding

B1: chimeric anti-IREM-1 monoclonal antibody 871.1 (antibody, human IgG1, V domains shown)
VH: EVKLVESGGGLVQPGGSLSLSCAASGFTFTDYYMSWVRQPPGMAPEWLGFIRNKANGYTTEYSASVKGRFTISRDDSQSILYLQMNALRAEDSATYYCAREDYGSSWGYYAMDCWGQGTSVTVSS
VL: DIVMTQSQKFMSTSVGDRVSVTCKASQNVDTNVAWYQQKPGQSPKALLYSASYRHSGVPDRFTGSGSETDFTLTITNVQSEDLAEYFCQQYNSFPLTFGSGTKLEIRR
binds: [1] | [2] | [3] | [4]
